Results deposited as PubChem BioAssay AID1259308 (NCATS, 2017).
Here is one part, drawn at random, of about 59,000 deposited reagents. Of all reagents, about 1,510 (2.6%) are marked active. 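Calls use total luciferase alone and ignore viability, so some active siRNAs may act by altering cell number.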 Unmarked entries are inactive. The numbers tell different reagents against one gene apart. Further read-outs or replicates are left out here.

- Screen: 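Genes whose loss raises luciferase production in HEK293 cells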 (primary screen)
- Cells: human HEK293 embryonic kidney cells stably expressing firefly luciferase (HEK-CMV-Luc2-Hygro)
- Knock-down reagent: single siRNA against human genes, 0.8 pmol siRNA per well
- Time to read-out: 72 h
- Measured: 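Reporter luminescence and viable-cell signal on separate replicate plates, given as percent of non-targeting control and median/MAD z-scores, plus per-cell luciferase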
- Reading the numbers: total luciferase, z-score: higher = more reporter protein produced
- Active means: 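An siRNA counts as active if its total luciferase robust z-score exceeds 3; genes with two or more such siRNAs out of three were retested with fresh siRNAs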
- Calls: active = raised luciferase; inactive = no rise

How did the screen score NDUFA3 (GeneID 4696) #1?
total luciferase, z-score: -1.41

What is on record for NDUFA3 (GeneID 4696) #2?
total luciferase, z-score: 0.0797

With NDUFA3 (GeneID 4696) #3, how do the results read?
total luciferase, z-score: -0.268

Which result is listed for DYNLL2 (GeneID 140735) #1?
total luciferase, z-score: 1.24

For DYNLL2 (GeneID 140735) #2, how do the results read?
total luciferase, z-score: -0.483

What is on record for DYNLL2 (GeneID 140735) #3?
total luciferase, z-score: 0.324

With MAOA (GeneID 4128) #1, what does the deposit list?
total luciferase, z-score: -0.281

With MAOA (GeneID 4128) #2, what was measured?
total luciferase, z-score: 1.78

With MAOA (GeneID 4128) #3, how do the results read?
total luciferase, z-score: 0.0602

For RETSAT (GeneID 54884) #1, how do the results read?
total luciferase, z-score: 1.82

With RETSAT (GeneID 54884) #2, what does the deposit list?
total luciferase, z-score: -0.886

Which result is listed for RETSAT (GeneID 54884) #3?
total luciferase, z-score: -0.0349

For PDS5A (GeneID 23244) #1, what was measured?
total luciferase, z-score: -1.07

With PDS5A (GeneID 23244) #2, what was measured?
total luciferase, z-score: -0.971

For PDS5A (GeneID 23244) #3, how do the results read?
total luciferase, z-score: -1.74

What is on record for SGCB (GeneID 6443) #1?
total luciferase, z-score: -0.645

For SGCB (GeneID 6443) #2, what was measured?
total luciferase, z-score: 0.319

Which result is listed for SGCB (GeneID 6443) #3?
total luciferase, z-score: 0.624

A stretch of the results above:
MAOA (GeneID 4128) #3 | total luciferase, z-score: 0.0602
RETSAT (GeneID 54884) #1 | total luciferase, z-score: 1.82
RETSAT (GeneID 54884) #2 | total luciferase, z-score: -0.886
RETSAT (GeneID 54884) #3 | total luciferase, z-score: -0.0349

The list goes on.
What is on record for ARRDC1 (GeneID 92714) #1?
total luciferase, z-score: -0.634

Which result is listed for ARRDC1 (GeneID 92714) #2?
total luciferase, z-score: 0.596

Which result is listed for ARRDC1 (GeneID 92714) #3?
total luciferase, z-score: 0.762

With FOXF2 (GeneID 2295) #1, what was measured?
total luciferase, z-score: -0.0311

With FOXF2 (GeneID 2295) #2, what was measured?
total luciferase, z-score: -0.489

For FOXF2 (GeneID 2295) #3, how do the results read?
total luciferase, z-score: 0.817

What did the screen give for LGI4 (GeneID 163175) #1?
total luciferase, z-score: -0.326

With LGI4 (GeneID 163175) #2, what was measured?
total luciferase, z-score: -0.909

For LGI4 (GeneID 163175) #3, how do the results read?
total luciferase, z-score: -0.209

For FOLH1 (GeneID 2346) #1, what does the deposit list?
total luciferase, z-score: 0.621

What is on record for FOLH1 (GeneID 2346) #2?
total luciferase, z-score: 0.263

With FOLH1 (GeneID 2346) #3, what was measured?
total luciferase, z-score: 1.04

For HDAC5 (GeneID 10014) #1, how do the results read?
total luciferase, z-score: -0.558

What is on record for HDAC5 (GeneID 10014) #2?
total luciferase, z-score: 0.171

What is on record for HDAC5 (GeneID 10014) #3?
total luciferase, z-score: 0.722

With CAMSAP1 (GeneID 157922) #1, what was measured?
total luciferase, z-score: -0.373

For CAMSAP1 (GeneID 157922) #2, what does the deposit list?
total luciferase, z-score: -0.356

What is on record for CAMSAP1 (GeneID 157922) #3?
total luciferase, z-score: -0.505

What did the screen give for DDTL (GeneID 100037417) #1?
total luciferase, z-score: 1.77

For DDTL (GeneID 100037417) #2, what does the deposit list?
total luciferase, z-score: -1.1

With DDTL (GeneID 100037417) #3, what does the deposit list?
total luciferase, z-score: -0.0812

What did the screen give for XPO4 (GeneID 64328) #1?
total luciferase, z-score: 0.764

With XPO4 (GeneID 64328) #2, what was measured?
total luciferase, z-score: -0.417

For XPO4 (GeneID 64328) #3, what was measured?
total luciferase, z-score: 2.54
